# Test results taken from PubChem BioAssay AID540275 (National Center for Advancing Translational Sciences (NCATS), 2011).
# Amino acid sequences for entries named in this document (tags omitted).
# UniProt Q8NER1, whole entry, looked up: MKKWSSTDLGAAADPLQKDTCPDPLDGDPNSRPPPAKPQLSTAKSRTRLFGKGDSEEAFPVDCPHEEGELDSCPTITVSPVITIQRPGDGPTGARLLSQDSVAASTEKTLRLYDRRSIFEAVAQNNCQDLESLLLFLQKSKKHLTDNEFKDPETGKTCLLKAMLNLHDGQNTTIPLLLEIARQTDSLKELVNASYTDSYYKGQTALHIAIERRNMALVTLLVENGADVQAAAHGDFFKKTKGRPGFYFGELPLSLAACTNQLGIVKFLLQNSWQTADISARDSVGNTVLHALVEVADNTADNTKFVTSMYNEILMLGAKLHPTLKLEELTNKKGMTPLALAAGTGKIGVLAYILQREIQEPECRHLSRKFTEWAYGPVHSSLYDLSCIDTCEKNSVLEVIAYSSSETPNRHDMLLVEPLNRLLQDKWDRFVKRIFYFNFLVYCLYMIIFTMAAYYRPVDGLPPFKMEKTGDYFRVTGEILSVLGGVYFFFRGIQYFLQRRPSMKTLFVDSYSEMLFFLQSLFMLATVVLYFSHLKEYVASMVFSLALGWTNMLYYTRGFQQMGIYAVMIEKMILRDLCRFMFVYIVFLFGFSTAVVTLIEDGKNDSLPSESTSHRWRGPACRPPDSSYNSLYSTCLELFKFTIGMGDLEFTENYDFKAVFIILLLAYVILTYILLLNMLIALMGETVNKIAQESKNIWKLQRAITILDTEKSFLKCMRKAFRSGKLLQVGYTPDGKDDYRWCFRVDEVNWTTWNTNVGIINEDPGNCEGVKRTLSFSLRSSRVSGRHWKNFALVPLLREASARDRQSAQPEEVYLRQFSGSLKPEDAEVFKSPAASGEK
# Several values for one entry are separate records, joined by “and”; a condition that tells them apart may be missing. Identical values can stand only once. Among all 320,000 compounds or so, about 620 (0.19%) were called active. Inconclusive means that the source gave no clear call. Such entries were picked first, then a sample of the others. Rule as the data show it: active = activation above about 80%; inconclusive = between about 30% and that limit; inactive = weaker than that.
# Target: Transient receptor potential cation channel subfamily V member 1 (Homo sapiens) (UniProt Q8NER1)
# Assay: HTS Assay for Compounds that Act as Agonists of the Vanilloid Receptor 1; also: 0% is about no effect
# Details: TRPV1-expressing cells, Fluo-8 calcium influx, agonist mode; at 8.33 µM, active compounds read high
# Outline: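 Cells expressing TRPV1 were dye-loaded with Fluo-8 and read kinetically: 10 s baseline, 3 min after compound (agonist portion), then 2 min after EC20 capsaicin (allosteric enhancer portion). Calcium-bound dye fluorescence at 480/520 nm.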
row,SMILES,activation
1,CCOC(=O)C1=C(NC(=S)NC(=O)c2ccccc2)c2ccccc2CC1C(C)C (stereo not given),inconclusive: 49.6%
2,CCOc1ccc(/C=N/NC(=O)c2ccccc2NC(=O)c2ccc(OC)cc2)cc1,inactive: 2.2%
3,CCOC(=O)c1c2ccc(OCC(=O)NN)cc2n2ccccc12,inconclusive: 33.1%
4,CCOC(=O)C1=C(c2ccccc2)NC(=S)NC1c1cc([N+](=O)[O-])ccc1OC (stereo not given),inactive: 3.8%
5,CC1CCN(C(=O)CSc2nnc(Cc3ccccc3)o2)CC1,inconclusive: 50.7%
6,CC(C)C[C@H](N)c1cn([C@@H](Cc2cc3ccccc3[nH]2)C(=O)N2CCNCC2)nn1,inactive: -0.228%
7,CC(CCc1ccccc1)NC(=O)COC(=O)c1ccc(F)cc1 (stereo not given),inconclusive: 54.6%
8,COc1cccc2cc(C(=O)N3CCN(c4ccccn4)CC3)c(=O)oc12,inactive: -1.98%
9,CCOc1ccc(-c2c(C)sc3nc[nH]c(=O)c23)cc1,inactive: 2.19%
10,C/C(=C\c1ccccc1)C(=O)Nc1ccc(Cl)cn1,inconclusive: 44.7%
11,Cc1onc(-c2ccccc2)c1C(=O)NNC(=S)NC(=O)c1ccc(Cl)cc1Cl,inconclusive: 35.3%
12,CC(/C=N/NC(=O)c1ccc(CN2c3cccc4cccc(c34)S2(=O)=O)cc1)c1ccccc1 (stereo not given),inactive: 7.8%
13,Nc1nnc(SCc2coc(-c3ccc(Cl)cc3)n2)s1,inconclusive: 66.9%
14,O=C(c1cc(-c2cccc(Cl)c2)on1)N1CCCCCC1,inconclusive: 33.9%
15,CSCc1c(C(=O)Nc2ccc3c(c2)OCO3)oc2ccccc12,inconclusive: 60.5%
16,COC(=O)C1CCN(c2nc3ccccc3nc2C(C#N)C(=O)OCC(C)C)CC1 (stereo not given),inconclusive: 42.1%
17,Cc1ccc(C(=O)NNC(=O)/C=C\C(=O)O)cc1,inconclusive: 33.2%
18,COc1ccccc1NC(=O)C(C)N(C)Cc1ccc(Cl)s1 (stereo not given),inconclusive: 30.4%
19,CCc1ccc(N2C(=O)CN(Cc3ccc(OC)c(OC)c3)C2=S)cc1,inconclusive: 32%
20,C=C1C(=O)[C@@]23[C@H](O)C[C@@H]4C(C)(C)CC[C@H](O)[C@]4(C)[C@@H]2C[C@H](O)[C@@H]1[C@H]3O,inactive: 3.88%
21,CCn1c(=O)c(CCC(=O)N2CCOCC2)c(C)c2c(C)nn(-c3ccccc3)c21,inconclusive: 76.8%
22,COc1ccccc1N(CC(=O)NC1CCCC1)S(=O)(=O)c1cccc(C(F)(F)F)c1,inconclusive: 31.3%

row,SMILES,activation
1,S=C(NCCC(c1ccccc1)c1ccccc1)Nc1cccc(Cl)c1,inconclusive: 33.9%
2,CCOC(=O)CNC(=O)CSc1nc2c(C)cccc2cc1CC,inactive: 28.4%
3,COCCCNC(=O)c1ccc(Cn2c(=O)c3ccccc3n(Cc3ccc(C)cc3)c2=O)cc1,inactive: 0.0885%
4,Cc1ccc(CNS(=O)(=O)c2ccc(Br)s2)cc1,inconclusive: 30.9%
5,O=C(Nc1cccnc1Cl)c1cc2ccccc2o1,inconclusive: 44.3%
6,CCCCc1ccc(NC(=S)NCc2cccnc2)cc1,inconclusive: 61.9%
7,CC1(C)CN(C(=S)Nc2ccc(F)cc2F)C1=O,inconclusive: 37.3%
8,Cc1ccc(C(=O)NCc2cccc(C(F)(F)F)c2)cc1S(=O)(=O)N1CCCCC1,inconclusive: 35.1%
9,CS(=O)(=O)N1CCC(C(=O)Nc2cccc(Cl)c2Cl)CC1,inconclusive: 43.3%
10,Cc1ccc2c(c1)N(CC(=O)NCCC1=CCCCC1)C(=O)c1cccnc1O2,inconclusive: 31.5%
11,CCOC(=O)C(CSCc1ccccc1)NC(=O)OC(C)(C)C (stereo not given),inconclusive: 43%
12,CN1CCN(C(=S)Nc2ccc([N+](=O)[O-])cc2)CC1,inactive: -4.47%
13,CCOC(=O)[C@@H]1[C@H]2COc3ccccc3[C@H]2N2C(=O)N(c3ccc(Cl)cc3)C(=O)[C@@]12C,inconclusive: 36.8%
14,COc1ccc(OC)c(/C=N/NC(=O)c2cc3c(OC)cccc3[nH]2)c1,inactive: 13.5%
15,C[C@H](NC(=O)c1[nH]cnc1C(=O)Nc1ccc(CNC(=O)OC(C)(C)C)cc1)C(=O)OC(C)(C)C,inactive: 9.95%
16,CC(/C=N/NC(=O)c1ccccc1F)=C\c1ccccc1,inconclusive: 51.9%
17,CC(C)(C)c1ccc(/C=C/C(=O)NCCCN2CCOCC2)cc1,inconclusive: 37.6%
18,CC(C)(CNC(=O)c1cc([N+](=O)[O-])ccc1N1CCC(Cc2ccccc2)CC1)N1CCOCC1,inconclusive: 55.1%
19,Cc1ccc(S(=O)(=O)N(CC(=O)NCc2ccco2)Cc2ccc(F)cc2)cc1,inconclusive: 41.4%
20,S=C(NCC1CCCO1)NC12CC3CC(CC(C3)C1)C2 (stereo not given),inconclusive: 44.1%
21,CC(C)CN1CCC(=O)N(CCSc2ccccc2)CC1,inconclusive: 54.5%
22,O=C(CCCCCCN1C(=O)c2ccccc2C1=O)N1CCC(c2ccccc2)C1 (stereo not given),inactive: 2.78%

row,SMILES,activation
1,CCC(C)NC(=O)c1cn(CC)c2ccc(S(=O)(=O)N(C)C)cc2c1=O (stereo not given),inconclusive: 36.5%
2,NC(=S)NNC(=O)C12CC3CC(CC(C3)C1)C2,inconclusive: 39.4%
3,CCOC(=O)[C@H]1[C@H]2COc3ccc(Cl)cc3[C@@H]2N2C(=O)c3ccc(C)cc3NC(=O)[C@@]12C,active: 98.9%
4,O=C(CCCC(=O)c1ccc(F)cc1)c1ccc(F)cc1,inconclusive: 73%
5,COc1cccc(NC(=O)COc2ccc3c(c2)CCC3)c1,inconclusive: 41.8%
6,COc1cccc2[nH]c3c(N4CC(C)CC(C)C4)ncnc3c12 (stereo not given),inconclusive: 47.9%
7,Cc1cc(C(=O)COC(=O)c2ccc(O)cc2O)c(C)n1C(C)C,inconclusive: 49%
8,COc1ccc(NC(=O)c2ccccc2NC(=O)CN2CCCCCC2)cc1,inconclusive: 31.8%
9,CCN1CCN(Cc2ccc(NC(=O)c3cc(NC(=O)c4cncc(-c5cccs5)c4)cc(OC)c3)cc2C(F)(F)F)CC1,inactive: 0.664%
10,COc1ccc(C(=O)NCCS(=O)(=O)N(C)C2CCCCC2)cc1,inactive: 7.82%
11,O=C(CCCN1C(=O)/C(=C/c2ccccc2Cl)SC1=S)Nc1cccnc1,inconclusive: 54.6%
12,Cc1ccc(CN(CC(=O)NCc2ccccn2)S(=O)(=O)c2ccccc2)cc1,inconclusive: 32.7%
13,NC(=O)c1ccc(-n2nnnc2Oc2ccccc2)cc1,inactive: 1.21%
14,O=C(C1=C[C@@H](c2csc3ccccc23)C[C@@H](OCc2ccc(CO)cc2)O1)N1CCN(Cc2ccccc2)CC1,inconclusive: 48.8%
15,Cc1ccc(OCC(=O)Nc2cccc(S(=O)(=O)N3CCCCC3)c2)c([N+](=O)[O-])n1,inactive: 6.97%
16,N#Cc1c(-c2ccco2)cc(-c2cccnc2)nc1N,inconclusive: 38.5%
17,CC(=O)Nc1ccc(C(=O)N2CCN(S(=O)(=O)c3ccc4c(c3)OCCCO4)CC2)cc1,inactive: 1.32%
18,COc1ccc2oc(C(=O)OCC(=O)N3CCC(C)CC3)c(C)c2c1,inconclusive: 53.8%
19,Cc1ccc2c(c1)N(CC(=O)N(Cc1ccc3c(c1)OCO3)CC1CCCO1)C(=O)C(C)O2 (stereo not given),inconclusive: 38.3%
20,CCOc1c(OC)ccc2c3c(c(=O)oc12)CCCC3,inactive: 2.09%
21,COC(=O)c1sc(NC(=O)c2c(F)cccc2F)c(C#N)c1C,inactive: 2.41%
22,CCCCCCNS(=O)(=O)c1ccc(NC(=O)C2CCCO2)cc1 (stereo not given),inactive: 5.97%

row,SMILES,activation
1,c1ccc(Oc2nc(-c3ccccn3)nc3ccccc23)cc1,inconclusive: 40.5%
2,O=P(O)(O)CP(=O)(O)O,inactive: -4.21%
3,Cc1c(OC(C)C(=O)NCc2ccncc2)ccc2c3c(c(=O)oc12)CCCC3 (stereo not given),inconclusive: 52.9%
4,COc1cccc(C(C)NC(=S)NCc2ccc(Cl)cc2)c1 (stereo not given),inconclusive: 57.7%
5,S=C(NCCc1ccccc1)Nc1ccc(Cl)cc1,inconclusive: 32%
6,COc1cccc(N2CCN(c3nc(C)cc(C)c3C#N)CC2)c1,inconclusive: 41.4%
7,COc1ccc(-c2ccc(OC)c([C@H]3[C@H]4C=CC[C@@H](C)[C@@H]4C(=O)N3Cc3ccccc3)c2)cc1,inconclusive: 38%
8,O=C(CN1C(=O)CC(c2ccccc2)=Nc2ccccc21)NCc1ccco1,inconclusive: 34.8%
9,CCCCC(=O)Nc1nnnn1CCC,inactive: 0.784%
10,O=c1c2ccccc2n(Cc2ccccc2F)c(=O)n1Cc1ccccc1F,inconclusive: 48.7%
11,CCc1ccc(NC(=O)C(C)OC(=O)CCC(=O)c2cccs2)cc1 (stereo not given),inconclusive: 61.3%
12,O=C(Nc1ccc([N+](=O)[O-])cc1)c1ccc(S(=O)(=O)N2CCCC2)cc1,inconclusive: 74.1%
13,CCn1c(C(=O)N2CCC(Cc3ccccc3)CC2)cc2sccc21,inconclusive: 31%
14,C[C@H]1O[C@@H](O[C@H]2[C@@H](O)C[C@H](O[C@H]3[C@@H](O)C[C@H](O[C@H]4CC[C@@]5(C)[C@H](CC[C@@H]6[C@@H]5C[C@@H](O)[C@]5(C)[C@@H](C7=CC(=O)OC7)CC[C@]65O)C4)O[C@@H]3C)O[C@@H]2C)C[C@H](O)[C@@H]1O,inactive: -1.85% and inactive: 8.5%
15,CC(C)CN(CC(C)C)S(=O)(=O)N1CCC(C(=O)NCc2cccs2)CC1,inconclusive: 62.5%
16,CSCC[C@H](NC(=O)C(C)Oc1ccc(Cl)cc1)c1nc2ccccc2[nH]1 (stereo not given in full),inconclusive: 34.7%
17,O=C(COc1ccc2c(c1)CCC2)NCc1ccccc1,inconclusive: 49.1%
18,COc1ccc2nc(NC(=O)c3ccc([N+](=O)[O-])o3)sc2c1,inconclusive: 50.2%
19,O=C(CNCc1ccco1)Nc1ccc(N2CCCCCC2)cc1,inconclusive: 58.9%
